# From PubChem BioAssay AID504582 (Broad Institute, 2011)
# The whole screen tested about 340,000 compounds, of which about 2,300 (0.68%) were called active. Inconclusive means that the source gave no clear call. Such entries were picked first, then a sample of the others. Cut-off read from the data, not from the text of the source: active = growth rescue above about 28% (passing the limit was not always enough); inconclusive = no clear call, values can overlap the other calls.
# Test: rescue of yeast from PfHsp40 toxicity, primary screen, S. cerevisiae, ATP luminescence (AID 504582);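 note: yeast W303a lacking pdr1 and pdr3 grown in galactose medium; growth measured after three days at 30 °C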
# Details: S. cerevisiae expressing PfHsp40, growth rescue, at 12.5 µM, stronger effect = higher value
row,Structure (SMILES),growth rescue
1,Cc1ccc(S(=O)(=O)NC(=O)NCc2ccc3c(c2)OCO3)cc1,active: 54.6%
2,O=C(NCc1ccccc1)C(c1ccccc1)N(C(=O)c1csnn1)c1ccc(F)cc1 (stereo not drawn),inconclusive: 30.8%
3,COc1cc(-c2c(-c3ccc4c(c3)OCO4)noc2-c2ccsc2)ccc1F,inconclusive: 41.3%
4,COc1ccc(NC(=O)Cn2nnc(-c3ccccc3NC(=O)c3cccs3)n2)cc1,active: 64.7%
5,CCOC(=O)C1=C(C)N(CCCCCC(=O)O)C(=O)NC1c1ccccc1OS(=O)(=O)c1ccc(C)cc1 (stereo not drawn),inconclusive: 36.7%
6,CC(OC(=O)C1CC=CCC1C(N)=O)C(Cl)=C(Cl)Cl (stereo not drawn),inactive: 0.422%
7,CCOC(=O)c1[nH]cnc1C(=O)NCc1ccccc1,inconclusive: 34.5%
8,O=C1N=c2ccc([N+](=O)[O-])cc2=C1c1sc(=O)[nH]c1O,inactive: -0.762%
9,COc1cc(C)c(-c2cc(C(=O)O)c(C)o2)cc1C(C)C,inconclusive: 33.7%
10,CN1CC(=O)N(CC(=O)Nc2ccc3c(c2)CCC3)C1=O,inactive: -1.73%
11,COC(=O)COc1ccc(C)cc1-n1nc2ccccc2n1,active: 43.6%
12,Cc1sc(NC(=O)c2ccco2)c(C(c2cccnc2)N2CCC(C)CC2)c1C (stereo not drawn),inconclusive: 225%
13,CC(=O)Oc1ccc(-c2ccc(C(=O)Nc3cccc(S(=O)(=O)N4CCOCC4)c3)cc2)cc1,inactive: 0.501%
14,O=C(CC(Nc1ccc(Cl)cc1Cl)C(=O)O)c1ccccc1 (stereo not drawn),inactive: 2.31%
15,Cc1ccc2nc(-c3ccc(NC(=O)COC(=O)c4ccc(Br)o4)cc3)sc2c1,inactive: 1.22%
16,Cc1cc(C)c(C(=O)N2CCCC(CNS(=O)(=O)N(C)C)C2)o1 (stereo not drawn),inconclusive: 29.7%
17,O=C(NC(=S)Nc1ccccc1N1CCCC1)c1ccccc1Br,inactive: 0.03%
18,COc1ccc(NS(=O)(=O)c2ccc3c(c2)Cc2ccccc2-3)cn1,active: 28.3%
19,CCOC(=O)N1CCC(NC(=O)c2cccn3c(=O)c4cc(Br)ccc4nc23)CC1,inactive: -0.408%
20,Cc1cccc(Nc2nc(-c3ccc(O)cc3O)cs2)n1,active: 121%

row,Structure (SMILES),growth rescue
1,Cn1c(O)c(N=NC(=O)CNC(=O)c2ccccc2)c2cc(Br)ccc21,inactive: -0.021%
2,Cc1cc(C)c2c(CN3CCCCC3)cc(=O)oc2c1,inactive: -3.03%
3,O=C(NCCC(=O)N1CCN(c2cccc(Cl)c2)CC1)c1ccc(Br)cc1,inconclusive: 27.9%
4,CCN1CCN(C2=C(NS(=O)(=O)c3ccc(Br)cc3)C(=O)c3ccccc3C2=O)CC1,inactive: -0.548%
5,CCCNC(=O)C(Cc1ccc(OC)cc1)NC(=O)c1ccc(Cl)cc1 (stereo not drawn),inactive: 0.168%
6,O=C(Cn1nc(-c2ccc(Cl)cc2)ccc1=O)N1CCC2(CC1)OCCO2,inconclusive: 37.4%
7,O=C(N[C@@H](Cc1ccccc1)C(=O)N1CCC2(CC1)NCCc1[nH]cnc12)c1cccc(F)c1,inactive: 0.292%
8,CC1CCN(c2nc(-c3ccncc3)nc3ccccc23)CC1,active: 282%
9,COc1ccccc1C(=O)Nc1ccnn1C1CCN(CCC(C)c2ccc(C)o2)CC1 (stereo not drawn),inactive: -0.637%
10,CCCC/C=C1\CCc2c([nH]c3ccccc23)C1=O,inactive: 1.84%
11,COC(=O)c1ccc(COc2cccc3c2CCN(Cc2cccc(C)c2)C3=O)o1,inconclusive: 28.5%
12,COC(=O)C1Cc2ccccc2CN1C(=O)CCl (stereo not drawn),active: 41.1%
13,CCCn1nnnc1SCC(=O)c1ccc2c(c1)OCCO2,inconclusive: 42.8%
14,Cc1ccc(C2CC2C(=O)NNC(=S)Nc2cccc(C)c2)cc1 (stereo not drawn),inconclusive: 31.4%
15,CC(=O)c1cccc(NC(=O)C2CC(=O)N(CCc3ccccc3)C2)c1 (stereo not drawn),inconclusive: 40%
16,COCCNC(=O)C(c1ccco1)N(C(=O)Cn1nnc2ccccc21)c1cc(C)ccc1C (stereo not drawn),inconclusive: 31.9%
17,COc1cc(O)c(CC=C(C)C)c(O)c1C(=O)CCc1ccc(O)cc1,active: 210%
18,COc1cnn(-c2ccccc2)c(=O)c1SCc1ccc(Cl)cc1Cl,active: 88.5%
19,Cc1ccc(SC(C)C(=O)Nc2ccncc2)cc1 (stereo not drawn),inconclusive: 36.5%
20,O=C(N1CCOCC1)N1CCN(S(=O)(=O)c2cccc([N+](=O)[O-])c2)CC1,inactive: 1.35%

# For convenience, some entries already given:
row,Structure (SMILES),growth rescue
13,CC(=O)Oc1ccc(-c2ccc(C(=O)Nc3cccc(S(=O)(=O)N4CCOCC4)c3)cc2)cc1,inactive: 0.501%
14,O=C(CC(Nc1ccc(Cl)cc1Cl)C(=O)O)c1ccccc1 (stereo not drawn),inactive: 2.31%

# The listing continues.

row,Structure (SMILES),growth rescue
1,Cc1ccc(OCC(=O)NNC(=O)CCc2ccccc2)cc1,inactive: -0.2%
2,CN1CCc2[nH]c3ccc(C(=O)NN)cc3c2C1,inconclusive: 27.4%
3,Cc1ccc2ccc3cccnc3c2n1,inconclusive: 37.2%
4,O=C(O)c1ccc(N2C(=O)C3C4c5ccccc5C(Br)(c5ccccc54)C3C2=O)cc1 (stereo not drawn),inconclusive: 67.3%
5,CCCNC(=O)c1ccc(-c2nc3ccccc3s2)s1,inactive: 0.939%
6,CN=C(Nc1ccc(Br)cc1)SC1CC(=O)N(c2ccc(OC)cc2)C1=O (stereo not drawn),active: 43.4%
7,Oc1ccccc1-c1nc(NCc2ccccc2)c2ccccc2n1,inactive: 0.283%
8,Cc1ccc(S(=O)(=O)N(C)C)cc1NC(=O)COc1ccc(-c2nnco2)cc1,inactive: -0.0815%
9,O=C1CN(C(=O)COC(=O)CCC(=O)c2ccc3c(c2)OCCO3)c2ccccc2N1,inconclusive: 30%
10,O=C(N/N=C/c1sc(N2CCOCC2)nc1-c1ccccc1)c1ccccc1O,active: 238%
11,Cc1ccc(-n2c(O)c(C=Nc3ccccc3N)c(=O)[nH]c2=O)cc1C,active: 39.6%
12,COc1ccc(C(=O)NCc2ccncc2)cc1OC,inactive: -1.96%
13,C#CC(=O)N(c1ccc(OC)cc1OC)C(C(=O)NC1CCCC1)c1cccs1 (stereo not drawn),inconclusive: 42.3%
14,COc1ccc(Nc2oc(COc3ccc(Cl)cc3)nc2C#N)cc1,inconclusive: 58.6%
15,O=C(N/N=C/c1ccoc1)c1ccccc1O,inconclusive: 68.3%
16,O=[N+]([O-])c1ccccc1CNCCO,inconclusive: 32.5%
17,CC(C)C[C@H](NC(=O)c1[nH]cnc1C(=O)Nc1ccc(CNC(=O)OC(C)(C)C)cc1)C(=O)OCc1ccccc1,inconclusive: 31.8%
18,Oc1cc2c(cc1C(c1ccc(Br)cc1)N1CCCC1)OCO2 (stereo not drawn),inconclusive: 27.8%
